Results are given in words; binding and its absence hold for the method and conditions named. Binding seen in cells or lysates may run through a third protein. Some entries that bind do so weakly or less than the wild type. Sequences can lack the tags named with a protein.

Amino acid sequences for entries named in this document (tags omitted).
UniProt Q8NHH9: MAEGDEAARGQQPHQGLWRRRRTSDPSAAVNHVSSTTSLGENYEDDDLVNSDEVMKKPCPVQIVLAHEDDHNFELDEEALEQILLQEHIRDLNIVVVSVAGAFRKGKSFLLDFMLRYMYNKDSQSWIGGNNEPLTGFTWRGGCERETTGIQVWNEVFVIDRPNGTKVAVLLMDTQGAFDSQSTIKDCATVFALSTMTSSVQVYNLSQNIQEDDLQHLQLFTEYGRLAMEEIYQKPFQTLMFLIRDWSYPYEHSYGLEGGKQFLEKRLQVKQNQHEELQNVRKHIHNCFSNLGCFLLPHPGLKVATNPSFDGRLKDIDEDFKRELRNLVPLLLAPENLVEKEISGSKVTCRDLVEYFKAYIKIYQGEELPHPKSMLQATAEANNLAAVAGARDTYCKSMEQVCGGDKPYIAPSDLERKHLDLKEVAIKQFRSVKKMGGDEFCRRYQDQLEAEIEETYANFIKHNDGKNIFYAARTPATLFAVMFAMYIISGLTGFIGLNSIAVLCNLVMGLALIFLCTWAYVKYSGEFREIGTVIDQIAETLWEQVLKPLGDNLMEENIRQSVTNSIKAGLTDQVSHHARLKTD

The target of test [1] is FLAG-tagged ATL2 (ATL2-FLAG) (human) (UniProt Q8NHH9). Briefly: co-IP + SEC; REEP-SBP co-expressed with ATL-FLAG in Expi293 cells; solubilised in 3% digitonin, 50 mM HEPES pH 7.5, 800 mM NaCl, 4 °C; bound to anti-FLAG resin, eluted with 0.2 mg/ml 3xFLAG peptide; Superose 6 in 20 mM HEPES pH 7.5, 150 mM NaCl, 0.06% digitonin; fractions by SDS-PAGE and Coomassie blue.
Test [2] has as its target T1, FLAG-tagged ATL1 (ATL1-FLAG) (human) (UniProt Q8WXF7).
T1 sequence: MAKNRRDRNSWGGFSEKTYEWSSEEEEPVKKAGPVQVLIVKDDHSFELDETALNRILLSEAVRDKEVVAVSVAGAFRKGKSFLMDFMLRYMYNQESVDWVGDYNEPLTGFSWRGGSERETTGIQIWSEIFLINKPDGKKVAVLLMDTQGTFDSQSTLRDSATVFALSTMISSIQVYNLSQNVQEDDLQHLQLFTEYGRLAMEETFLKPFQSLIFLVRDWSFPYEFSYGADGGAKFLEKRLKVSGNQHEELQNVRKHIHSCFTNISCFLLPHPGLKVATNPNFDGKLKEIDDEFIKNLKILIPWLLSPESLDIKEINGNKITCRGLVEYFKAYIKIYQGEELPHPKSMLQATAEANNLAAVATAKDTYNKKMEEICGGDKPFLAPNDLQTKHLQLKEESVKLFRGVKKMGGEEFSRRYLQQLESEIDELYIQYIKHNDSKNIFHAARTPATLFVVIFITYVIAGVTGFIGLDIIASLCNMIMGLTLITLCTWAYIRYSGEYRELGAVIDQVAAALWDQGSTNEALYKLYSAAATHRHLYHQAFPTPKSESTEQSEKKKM
The test is described as above.

B1: SBP-tagged REEP1 (REEP1-SBP) (protein, UniProt Q9H902 1-201)
chain: MVSWIISRLVVLIFGTLYPAYYSYKAVKSKDIKEYVKWMMYWIIFALFTTAETFTDIFLCWFPFYYELKIAFVAWLLSPYTKGSSLLYRKFVHPTLSSKEKEIDDCLVQAKDRSYDALVHFGKRGLNVAATAAVMAASKGQGALSERLRSFSMQDLTTIRGDGAPAPSGPPPPGSGRASGKHGQPKMSRSASESASSSGTA
For the molecule B1, the binding result in test [1] and in test [2] was “binds” in each case.

B2: SBP-tagged REEP4 (REEP4-SBP) (protein, UniProt Q9H6H4 1-257)
chain: MVSWMICRLVVLVFGMLCPAYASYKAVKTKNIREYVRWMMYWIVFALFMAAEIVTDIFISWFPFYYEIKMAFVLWLLSPYTKGASLLYRKFVHPSLSRHEKEIDAYIVQAKERSYETVLSFGKRGLNIAASAAVQAATKSQGALAGRLRSFSMQDLRSISDAPAPAYHDPLYLEDQVSHRRPPIGYRAGGLQDSDTEDECWSDTEAVPRAPARPREKPLIRSQSLRVVKRKPPVREGTSRSLKVRTRKKTVPSDVDS
Turning to B2, the binding entry in test [1] and in test [2] was “binds” throughout.

For the origin of these results see PMC11455953.
